The target of the data set is Sp1 (in 2008 cell nuclear extract) (Homo sapiens) (UniProt P08047). Put plainly: EMSA. Particulars: untreated and paclitaxel-treated extracts; supershift with anti-Sp1 PEP2; shift abolished by Sp1 immunodepletion; protein in an extract; protein details: endogenous, 2008 ovarian carcinoma nuclear extract; label: 32P.

By UniProt entry, the sequences of proteins in these tests, tags left out. Residues count along the entry.
UniProt P08047, 2-785: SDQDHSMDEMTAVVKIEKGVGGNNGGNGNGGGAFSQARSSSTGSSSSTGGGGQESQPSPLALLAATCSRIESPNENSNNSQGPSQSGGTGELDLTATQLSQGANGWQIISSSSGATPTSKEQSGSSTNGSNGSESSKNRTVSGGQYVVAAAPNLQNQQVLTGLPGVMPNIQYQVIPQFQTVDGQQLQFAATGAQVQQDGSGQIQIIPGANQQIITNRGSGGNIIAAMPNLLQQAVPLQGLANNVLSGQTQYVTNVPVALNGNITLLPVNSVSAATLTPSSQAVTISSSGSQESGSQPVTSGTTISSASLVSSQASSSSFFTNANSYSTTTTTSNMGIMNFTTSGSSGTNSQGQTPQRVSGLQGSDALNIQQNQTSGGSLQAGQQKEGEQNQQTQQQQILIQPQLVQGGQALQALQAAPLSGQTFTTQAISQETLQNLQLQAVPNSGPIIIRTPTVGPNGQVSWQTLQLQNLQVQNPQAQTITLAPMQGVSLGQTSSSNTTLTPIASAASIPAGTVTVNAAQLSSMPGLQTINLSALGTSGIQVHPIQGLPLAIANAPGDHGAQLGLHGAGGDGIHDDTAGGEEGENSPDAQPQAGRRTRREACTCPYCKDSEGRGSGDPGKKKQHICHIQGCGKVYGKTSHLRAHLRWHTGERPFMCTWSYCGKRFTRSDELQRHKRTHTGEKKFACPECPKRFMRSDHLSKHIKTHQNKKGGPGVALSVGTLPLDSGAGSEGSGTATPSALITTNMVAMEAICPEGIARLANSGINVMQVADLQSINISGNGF

Results from cells or extracts need not show a direct contact.

On to “AGGCTCCTGGGTCCCGCCCCCCAAAAGAGGGGACGGGCC (double strand) [CIRE (GADD153 -74 to -35)]”, for which the binding result was “binds”.
